Where a name gives a salt, the structure may show the parent alone. The list shows a part of the results. Most values come without repeats; read them as rough.

The test system of the experiment is HeLa. Nature of the experiment: lysosomal-METRIQ red/green fluorescence ratio relative to DMSO (ratio to DMSO); higher = higher lysosomal activity / lysosomal biogenesis. The following applies: 10 µM; 12 h.
`Cc1cc(C=C2C(=O)C=CC2=O)cc(C)c1O`: the “lysosomal-METRIQ red/green fluorescence ratio” value was found to be 0.636.

As to `CCCS(=O)(=O)Nc1ccc(F)c(C(=O)c2c[nH]c3ncc(-c4ccc(Cl)cc4)cc23)c1F` [Vemurafenib], the “lysosomal-METRIQ red/green fluorescence ratio” value amounted to 0.909.

On to `OC[C@H]1NC[C@H](O)[C@@H](O)[C@@H]1O` [Deoxynojirimycin], for which the “lysosomal-METRIQ red/green fluorescence ratio” value was 1.

In the case of `CC1=Nc2ccc(Cl)cc2S(=O)(=O)N1` [Diazoxide], the “lysosomal-METRIQ red/green fluorescence ratio” value was found to be 1.04.

Regarding `Cc1ccc(NC(=O)c2ccc(CN3CCN(C)CC3)cc2)cc1Nc1nccc(-c2cccnc2)n1` [imatinib mesylate], the “lysosomal-METRIQ red/green fluorescence ratio” value was determined as 0.727.

Consider `CCNCCCNCCCCNCCCNCC` [N1,N12-Diethylspermine (BESpm)], for which the “lysosomal-METRIQ red/green fluorescence ratio” value was 1.04.

With `COC(=O)[C@H](CC(C)C)NC(=O)c1ccc(NC[C@@H](N)CS)cc1-c1ccccc1`, the “lysosomal-METRIQ red/green fluorescence ratio” value was determined as 1.1.

`CO[C@H]1C[C@@H]2CC[C@@H](C)[C@@](O)(O2)C(=O)C(=O)N2CCCC[C@H]2C(=O)O[C@H]([C@H](C)C[C@@H]2CC[C@@H](O)[C@H](OC)C2)CC(=O)[C@H](C)/C=C(\C)[C@@H](O)[C@@H](OC)C(=O)[C@H](C)C[C@H](C)/C=C/C=C/C=C/1C` [Rapamycin]: the “lysosomal-METRIQ red/green fluorescence ratio” value was found to be 1.2.

`Nc1ncn([C@@H]2O[C@H](CO)[C@@H](O)[C@H]2O)c(=O)n1` [Azacytidine]: the “lysosomal-METRIQ red/green fluorescence ratio” value was determined as 1.35.

`Cc1cnc(-c2cnc(NCCNc3ccc(C#N)cn3)nc2-c2ccc(Cl)cc2Cl)[nH]1`: the “lysosomal-METRIQ red/green fluorescence ratio” value stood at 0.545.

For the compound `C[C@@H]1C[C@H]2[C@@H]3CCC4=CC(=O)C=C[C@]4(C)[C@@]3(F)[C@@H](O)C[C@]2(C)[C@@]1(O)C(=O)CO` [Dexamethasone], the “lysosomal-METRIQ red/green fluorescence ratio” value stood at 1.1.
